The source of these data is PubChem BioAssay AID328 (DTP/NCI, 2004).

The list is a part of this screen's results and no random one: it gathers tests that were run many times, whatever their T/C, doses with no T/C, and many T/C values between a quarter and a half above the control. Other doses and runs of a compound stand elsewhere. T/C: endpoint of the treated group in % of that of the vehicle group. Some doses have a count of surviving animals in place of a T/C: the source files T/C as zero there, which appears to mark a toxic dose or a test without result, not a measured value. Some doses without a T/C left all or most animals alive at the check, yet need not have been tolerated: survival well below the control is almost never listed, so the zero probably covers shortened survival too. Counts of survivors are from the toxicity check (mostly the fifth day) where no day follows; animals may have died later. Schedule codes are those of the source, taken here to give the interval after Q, in days (D) or hours (H), and the number of doses after X. Some entries were tested several times; the results are listed from low to high. For survival time, this PubChem deposit counts one and a half times the control or more as active, and values a quarter to a half above the control carry no call in these data; other NCI protocols may use other cut-offs. Signs of the kind (2×) give the number of equal values in this list. Some T/C values carry the count of animals alive at the toxicity check (mostly the fifth day); without a count, all were alive then.

For the assay, the system named is BDF1 mice, P388 leukemia ip, median survival T/C. Description: NCI In Vivo Anticancer Drug Screen. Data for tumor model P388 Leukemia (intraperitoneal) in B6D2F1 (BDF1) mice. Conditions: T/C endpoint: median survival time, higher T/C = longer survival. On the procedure: The antitumor activity of compounds was measured in mice bearing transplantable tumors. Survival or tumor size were measured and the results are expressed as the measurement made in the treated group (T) divided by the measurement made in the vehicle treated control group (C). The tumor model used in this assay is P388 Leukemia (intraperitoneal) in B6D2F1 (BDF1) mice

Where [1] appears, read: dose: 25.0 mg/kg/injection, schedule: Q01DX009 (ip), vehicle: saline.
Setting [2] is: dose: 50.0 mg/kg/injection, schedule: Q04DX003 (ip), vehicle: saline.

For `OCCOCCOCCN1CCN(CCCN2c3ccccc3Sc3ccc(C(F)(F)F)cc32)CC1`, the survivor count was 4 of 6 (dose: 1.57 mg/kg/injection, schedule: Q01DX009 (ip), vehicle: saline); 5 of 6 (dose: 3.12 mg/kg/injection, schedule: Q01DX009 (ip), vehicle: saline); 1 of 6 (dose: 12.5 mg/kg/injection, schedule: Q01DX009 (ip), vehicle: saline); 4 of 6 under setting [1]; 1 of 6 (dose: 50.0 mg/kg/injection, schedule: Q01DX009 (ip), vehicle: saline); 0 of 6 (dose: 100.0 mg/kg/injection, schedule: Q01DX009 (ip), vehicle: saline).
With `CN(C)NCCC#N`, the T/C (dose: 150.0 mg/kg/injection, schedule: Q01DX009 (ip), vehicle: saline) is 127 % of control. For the same compound, the survivor count runs as follows: (dose: 225.0 mg/kg/injection, schedule: Q01DX009 (ip), vehicle: saline) 6 of 6; (dose: 300.0 mg/kg/injection, schedule: Q01DX009 (ip), vehicle: saline) 5 of 6; (dose: 600.0 mg/kg/injection, schedule: Q01DX009 (ip), vehicle: saline) 0 of 6.
As to `Cc1ccc(NC(=O)OCCSCCOC(=O)Nc2ccc(C)cc2)cc1`, for the setting “dose: 100.0 mg/kg/injection, schedule: Q04DX003 (ip), vehicle: other”, the survivor count is 6 of 6.
`O=C1C=C2C(=CCOC2O)O1` (centres undefined): the T/C reads like this: (dose: 0.3 mg/kg/injection, schedule: Q01DX009 (ip), vehicle: other) 131 % of control; (dose: 1.0 mg/kg/injection, schedule: Q01DX009 (ip), vehicle: other) 141 % of control. Besides, the survivor count (dose: 10.0 mg/kg/injection, schedule: Q01DX009 (ip), vehicle: other) is listed as 0 of 6.
Regarding `CC(C)Cn1cnc2c(SCc3ccc(Cl)cc3Cl)nc(N)nc21`, the T/C (dose: 100.0 mg/kg/injection, schedule: Q01DX009 (ip), vehicle: gum acacia) was 133 % of control. In addition, for the setting “dose: 400.0 mg/kg/injection, schedule: Q04DX003 (ip), vehicle: gum acacia”, the survivor count is recorded as 6 of 6.
In the case of `CCC(C)Sc1nc(N)nc2c1ncn2C1OC(CO)C(O)C1O` (centres undefined), the T/C (dose: 400.0 mg/kg/injection, schedule: Q04DX003 (ip), vehicle: saline with Tween-80) was 125 [4 of 6 alive] and 140 % of control [5 of 6 alive].
`COc1cccc2c1C(=N)c1c(O)c3c(c(O)c1C2=O)C[C@@](O)(C(C)=O)C[C@@H]3OC1CC(N)C(O)C(C)O1` (some centres undefined): the T/C (dose: 16.0 mg/kg/injection, schedule: Q04DX003 (ip), vehicle: saline) was 140 % of control.
Consider `COC(=O)c1ccc(C(=O)O)[n+]([O-])c1`, for which the survivor count was 6 of 6 (dose: 50.0 mg/kg/injection, schedule: Q01DX009 (ip), vehicle: Klucel (hydroxypropylcellulose) (HPC)); 6 of 6 (dose: 100.0 mg/kg/injection, schedule: Q01DX009 (ip), vehicle: Klucel (hydroxypropylcellulose) (HPC)); 6 of 6 (dose: 100.0 mg/kg/injection, schedule: Q04DX003 (ip), vehicle: Klucel (hydroxypropylcellulose) (HPC)); 6 of 6 (dose: 400.0 mg/kg/injection, schedule: Q01DX009 (ip), vehicle: Klucel (hydroxypropylcellulose) (HPC)).
Consider `C=C1C(=O)CCC1C(=O)O` (centres undefined), for which the T/C by setting is: (dose: 178.0 mg/kg/injection, schedule: Q01DX009 (ip), vehicle: saline) 129 % of control; (dose: 200.0 mg/kg/injection, schedule: Q01DX009 (ip), vehicle: saline) 136 and 140 % of control; (dose: 266.0 mg/kg/injection, schedule: Q01DX009 (ip), vehicle: saline) 136 % of control; (dose: 600.0 mg/kg/injection, schedule: Q04DX003 (ip), vehicle: saline) 140 % of control; (dose: 900.0 mg/kg/injection, schedule: Q04DX003 (ip), vehicle: saline) 146 % of control.
For the compound `c1ccc(C[n+]2ccc(-c3cc[n+](Cc4ccccc4)cc3)cc2)cc1`, the survivor count (dose: 1.25 mg/kg/injection, schedule: Q01DX010 (ip), vehicle: saline) is reported as 6 of 6; the survivor count (dose: 2.5 mg/kg/injection, schedule: Q01DX010 (ip), vehicle: saline) was 5 of 6 and 6 of 6; the survivor count (dose: 5.0 mg/kg/injection, schedule: Q01DX010 (ip), vehicle: saline) was 0 of 6; the survivor count (dose: 10.0 mg/kg/injection, schedule: Q01DX010 (ip), vehicle: saline) is reported as 0 of 6; the survivor count (dose: 1250.0 micrograms/kg/injection, schedule: Q01DX010 (ip), vehicle: saline) is given as 7 of 7.
With `O=C(Nc1ccccc1C(F)(F)F)Nc1cccc2ccccc12`, the survivor count (dose: 100.0 mg/kg/injection, schedule: Q01DX001 (ip), vehicle: saline with Tween-80) is listed as 6 of 6.
With `N/C(=N\Cl)C(Cl)(Cl)Cl`, the T/C reads like this: under setting [1], 127 % of control; (dose: 37.5 mg/kg/injection, schedule: Q01DX009 (ip), vehicle: saline) 148 % of control; under setting [2], 127 % of control. Further, where the note is “dose: 56.3 mg/kg/injection, schedule: Q01DX009 (ip), vehicle: saline”, the survivor count was 5 of 6 and 6 of 6.
With `N#CC(Br)C(N)=O` (centres undefined), the survivor count runs as follows: (dose: 10.0 mg/kg/injection, schedule: Q01DX009 (ip), vehicle: saline) 3 of 6; (dose: 20.0 mg/kg/injection, schedule: Q01DX009 (ip), vehicle: saline) 0 of 6.
For the compound `O=C1NC(=O)C([N+](=O)[O-])=C(O)C1=O`, the T/C (dose: 2.0 mg/kg/injection, schedule: Q01DX009 (ip), vehicle: saline with Tween-80) was 125 % of control; the T/C (dose: 35.0 mg/kg/injection, schedule: Q01DX009 (ip), vehicle: saline with Tween-80) was 125 % of control; the T/C under setting [2] was 136 % of control; the T/C (dose: 70.0 mg/kg/injection, schedule: Q01DX009 (ip), vehicle: saline with Tween-80) is 130 % of control.
With `CN(C)C1C(=O)C(C(N)=O)=C(O)C2(O)C(=O)C3=C(O)c4c(O)cccc4C(C)(O)C3C(O)C12` (centres undefined), the T/C runs as follows: (dose: 50.0 mg/kg/injection, schedule: Q01DX010 (ip), vehicle: water) 127 and 127 % of control [5 of 6 alive]; (dose: 75.0 mg/kg/injection, schedule: Q01DX010 (ip), vehicle: water) 127 % of control (2×); (dose: 100.0 mg/kg/injection, schedule: Q01DX010 (ip), vehicle: water) 136 % of control (3×); (dose: 125.0 mg/kg/injection, schedule: Q01DX010 (ip), vehicle: water) 136 and 145 % of control. In addition, for the setting “dose: 200.0 mg/kg/injection, schedule: Q01DX010 (ip), vehicle: water”, the survivor count is 1 of 6.
`O=[N+]([O-])c1ccc(N2CCN(CCO)CC2)c2c1no[n+]2[O-]`: where the note is “dose: 7.5 mg/kg/injection, schedule: Q01DX009 (ip), vehicle: saline with Tween-80”, the T/C was 142 % of control.
